Experimental data: PubChem BioAssay AID743255 (National Center for Advancing Translational Sciences (NCATS), 2014)
The campaign covered roughly 390,000 compounds. About 910 (0.23%) were called active. The inconclusive results got no clear call from the source; some entries with a clear call stand among them for comparison. Calls follow the shape of the dose curve; as a rule, active = well fitted inhibition curve with a large enough effect; inconclusive = small, poorly fitted or top-dose-only effect; inactive = no such curve, though single readings can be large or run the other way. Potencies of inconclusive entries are doubtful fits and often do not repeat.

Sequences of proteins named here, by UniProt entry; tags and fusion partners are left off. A change or cut given only in a name is not applied to a line headed by its entry.
UniProt O94782: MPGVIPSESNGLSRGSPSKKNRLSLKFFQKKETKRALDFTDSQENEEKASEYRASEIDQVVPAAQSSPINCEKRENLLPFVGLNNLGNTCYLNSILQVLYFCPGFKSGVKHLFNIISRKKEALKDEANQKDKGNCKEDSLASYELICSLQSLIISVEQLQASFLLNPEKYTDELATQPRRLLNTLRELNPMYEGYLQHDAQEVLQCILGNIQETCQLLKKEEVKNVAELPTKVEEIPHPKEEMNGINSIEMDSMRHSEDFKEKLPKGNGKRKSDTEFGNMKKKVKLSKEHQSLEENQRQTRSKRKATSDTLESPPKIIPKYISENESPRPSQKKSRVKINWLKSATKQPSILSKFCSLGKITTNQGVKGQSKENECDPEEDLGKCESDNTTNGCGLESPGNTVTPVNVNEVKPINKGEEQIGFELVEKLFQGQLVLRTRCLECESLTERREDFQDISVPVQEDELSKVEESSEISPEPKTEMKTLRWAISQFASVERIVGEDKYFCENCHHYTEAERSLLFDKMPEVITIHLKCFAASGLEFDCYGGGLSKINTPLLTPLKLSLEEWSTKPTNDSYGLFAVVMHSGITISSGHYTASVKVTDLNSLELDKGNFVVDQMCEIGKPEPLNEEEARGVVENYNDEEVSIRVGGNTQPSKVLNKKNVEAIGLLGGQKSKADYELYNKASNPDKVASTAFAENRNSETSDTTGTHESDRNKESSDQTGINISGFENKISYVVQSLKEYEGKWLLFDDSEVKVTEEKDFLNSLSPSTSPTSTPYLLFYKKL

The compounds below were run against Ubiquitin carboxyl-terminal hydrolase 1 (Homo sapiens) (UniProt O94782) (assay: Inhibitors of USP1/UAF1: Primary Screen). Conditions: recombinant USP1/UAF1, Ub-Rhodamine cleavage fluorescence; activity change, negative = inhibition: at 57.1 µM (top of the series).
Outline: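 Step one: compound is pinned into 1nM USP1/UAF1 in HEPES pH 7.8 buffer with TCEP. Step two: 15 min room-temperature incubation. Step three: Ub-Rho (150nM final) starts cleavage, tracked by fluorescence over six one-minute reads.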
% is scaled to controls: 0 for no effect and ±100 for the full control effect; potency is read from the fitted curve at half-maximal effect.
Also: nearly all actives have a fitted effect of over 60% in size.

Activity change, negative = inhibition, inactive:
O=C(c1ccc2c(c1)N(Cc1ccc(Cl)cc1)C(=O)c1ccccc1S2(=O)=O)N1CCc2ccccc21 -24.3%, C[C@H](NC(=O)c1[nH]cnc1C(=O)Nc1ccc(Cl)cc1)C(=O)OC(C)(C)C -7.57%, Cc1ccc(Nc2nc(C)c(NC(=O)c3ccc(C)cc3)c(Nc3ccc(C)cc3)n2)cc1 -25.9%, CCC(=O)Nc1cc(-c2nc3ccccc3s2)c(Cl)cc1Cl -23.4%, COc1cc(OC)cc(-c2nnc(NC(=O)CCS(=O)(=O)c3ccc(C)cc3)o2)c1 -9.07%, CCOC(=O)C(=O)NNc1cccc(C)c1C 1.99%, Cc1cccc(C(=O)Nc2nnc(-c3ccc(C(C)(C)C)cc3)s2)c1 -0.486%, CCN1/C(=C/C(C)=O)Sc2ccc(OC)cc21 -13.7%, O=C(O)c1ccccc1N/N=C/c1c(Sc2nnnn2-c2ccccc2)nc2ccccn2c1=O 71.1%, CSc1nn(Cc2ccc(F)cc2)c(N)c1S(=O)(=O)c1ccc(Cl)cc1 -29.5%, COCc1cc(C)n(CC(=O)Nc2cccc(C(C)=O)c2)c(=O)c1C#N -19.1%, Cc1cc(C)cc(-n2ccnc2SCC(=O)Nc2ccc(C)c(Cl)c2)c1 -22.1%, COc1ccc(NC(=O)c2cc(C(=O)Nc3ccc(OC)cc3OC)cc([N+](=O)[O-])c2)c(OC)c1 -9.58%, O=C(N/N=C\c1ccc(O)c([N+](=O)[O-])c1)C1COc2ccccc2O1 (stereo not drawn) -21.2%, O=S(=O)(c1ccc(=S)[nH]c1)N1CCOCC1 -18.1%, CCc1ccc(N(C(=O)c2csnn2)C(C(=O)NC(C)(C)C)c2ccccn2)cc1 (stereo not drawn) -18.9%, O=C(Oc1ccc(Br)cc1C(=S)N1CCOCC1)c1ccc([N+](=O)[O-])cc1[N+](=O)[O-] -16.9%, C/C(Cl)=C\Cn1c(Nc2ccc(C)cc2)nc2c1c(=O)n(C)c(=O)n2C -2.02%

Potency, active:
CCN(CC)C(=O)c1sc2nc(-c3cccs3)cc(-c3ccc(Cl)cc3)c2c1N 28.2 µM, O=C1Nc2ccc([N+](=O)[O-])cc2C1=Nc1cccc(CO)c1 25.1 µM

Potency, inconclusive:
Cn1c(=O)n(C)c2cc(NS(=O)(=O)c3ccc(C(C)(C)C)cc3)c(NCc3ccccc3)cc21 39.8 µM [inhibitor, single point], COc1ccc(NC(=O)c2oc3ccccc3c2NC(=O)COc2ccc(F)cc2)c(OC)c1 8.91 µM [inhibitor, full curve, poor fit], O=C(Nc1ccc2c(c1)OCO2)c1cc(-c2cccc(O)c2)on1 35.5 µM [inhibitor, single point], CCOC(=O)N1CCN(S(=O)(=O)c2cc([N+](=O)[O-])c(C)cc2C)CC1 25.1 µM [inhibitor, partial curve], CN1C/C(=C/c2ccccc2[N+](=O)[O-])C(=O)/C(=C\c2ccccc2[N+](=O)[O-])C1 25.1 µM [inhibitor, partial curve], C[C@H](CO)N1C[C@H](C)[C@@H](CN(C)C(=O)Nc2ccccc2F)OCc2cnnn2CCCC1=O 0.251 µM [inhibitor, full curve, poor fit], COc1ccccc1N1CCN(S(=O)(=O)c2c(C)sc3ncn(CC(=O)NCCN(C)C)c(=O)c23)CC1 10 µM [inhibitor, partial curve, poor fit], C[C@@H]1CN([C@@H](C)CO)C(=O)c2cc(Br)cnc2O[C@H]1CN(C)C(=O)CN1CCOCC1 0.282 µM [inhibitor, full curve, poor fit], Cc1ccc(Cl)cc1Nc1nc(-c2sc(NC(=O)C(C)(C)C)nc2C)cs1 112 µM [inhibitor, partial curve, poor fit], COCCNC(=O)c1ccc2c(c1)N(Cc1c(F)cccc1Cl)C(=O)c1ccccc1S2 50.1 µM [inhibitor, partial curve], Cc1noc(/C=C/c2ccco2)c1S(=O)(=O)N1CCC(C(=O)N2CCc3ccccc3C2)CC1 44.7 µM [inhibitor, partial curve], O=C1OC(c2ccccc2)(c2ccccc2)c2ccsc21 0.794 µM [inhibitor, full curve], CCCCC(=O)Nc1ccc(Cl)cn1 1 µM [inhibitor, full curve], O=C(COC(=O)c1cc([N+](=O)[O-])ccc1N1CCOCC1)NCc1ccc(Cl)cc1Cl 50.1 µM [inhibitor, partial curve, poor fit], COC(C/C=C/C(=O)[C@@H](C)OCc1ccccc1)OC 0.251 µM [inhibitor, full curve], CN(C)CCNc1ccc2ncn3c4ccc(O)cc4c(=O)c1c23 10 µM [inhibitor, full curve, poor fit], CCN(CC)CCCNC(=O)c1nn(-c2ccc(OC)cc2)c(=O)c2c1c1ccccc1n2C 10 µM [inhibitor, partial curve, poor fit], Cc1c(Cl)cccc1NC(=O)Nc1cc(C(C)(C)C)nn1C 39.8 µM [inhibitor, partial curve, poor fit], COc1cc(O)c(C(CC(=O)N2CCOCC2)c2ccc(N(C)C)cc2)c(OC)c1 (stereo not drawn) 1.41 µM [inhibitor, full curve, poor fit], CCCCOC(=O)c1ccc(NC(=O)/C(C#N)=C/c2ccc(C)o2)cc1 2 µM [inhibitor, partial curve, poor fit], Nc1cccc(Nc2nc(OC(C(F)(F)F)C(F)(F)F)nc(OC(C(F)(F)F)C(F)(F)F)n2)c1 3.16 µM [inhibitor, full curve, poor fit], Cc1ccc(C(=O)CC2(O)C(=O)N(Cc3ccccc3)c3ccc(Br)cc32)cc1 (stereo not drawn) 10 µM [inhibitor, partial curve], COc1ccc(S(=O)(=O)N(C)C[C@@H]2OCc3cnnn3CCCC(=O)N([C@@H](C)CO)C[C@@H]2C)cc1 0.282 µM [inhibitor, full curve, poor fit], CCCCC1=CC2=CC(=O)C(C)(OC(=O)CC)C(=O)C2=CN1C1CCCCC1 (stereo not drawn) 15.8 µM [inhibitor, partial curve], CCCCCCCCCCCCOC(=O)C[N+](C)(C)C 6.31 µM [inhibitor, partial curve], CCOc1ccc(S(=O)(=O)N2CCN(c3ccc(C)cc3C)CC2)c2ccccc12 1.41 µM [inhibitor, full curve, poor fit], Cc1ccc2[nH]c(=O)c(C(c3nnnn3Cc3ccccc3)N3CCc4ccccc43)cc2c1 (stereo not drawn) 14.1 µM [inhibitor, partial curve], Cc1cc(C)c2c(=O)[nH]c(SCc3ccccc3)nc2n1 20 µM [inhibitor, partial curve, poor fit], CCC(CC)C1C(C#N)=C(N)Oc2n[nH]c(-c3ccccc3)c21 (stereo not drawn) 31.6 µM [inhibitor, partial curve], CCOc1ccccc1NC(=O)c1nnn(CC(=O)Nc2ccccc2CC)c1N 15.8 µM [inhibitor, partial curve, poor fit], Cc1ccc(-c2nnn(CC(=O)N3CCN(c4ccccc4)CC3)n2)o1 6.31 µM [inhibitor, single point], COc1ccc(-c2c(C3=CCCCC3)oc3ccc(-c4ccc5c(c4)OCO5)cc23)cn1 35.5 µM [inhibitor, partial curve], Clc1cc(NCc2cccs2)ccc1N1CCOCC1 44.7 µM [inhibitor, partial curve, poor fit], Cc1cccc(NC2=C(NC(=O)c3ccccc3)C(=O)c3ccccc3C2=O)c1 17.8 µM [inhibitor, partial curve], O=S(=O)(c1ccc(Br)s1)N1CCN(c2ncccn2)CC1 7.08 µM [inhibitor, single point], C/C(=N\NC(=O)c1ccc(-c2ccccc2)cc1)c1ccco1 31.6 µM [inhibitor, single point], CCOC(=O)c1cc(C)sc1NC(=O)C(c1ccccc1)c1ccccc1 44.7 µM [inhibitor, partial curve, poor fit], CCOC(=O)c1c(NC(=O)CSc2nnc3c(n2)[nH]c2ccccc23)sc2c1CCN(C)C2 31.6 µM [inhibitor, partial curve], O=C(Nc1ccc(S(=O)(=O)N2CCCC2)cc1)c1cccs1 44.7 µM [inhibitor, partial curve, poor fit], Cc1noc(C)c1NC(=O)Nc1cccc2c1O[C@H](CN(C)S(C)(=O)=O)[C@@H](C)CN([C@H](C)CO)C2=O 6.31 µM [inhibitor, single point], CCCC[n+]1ccn(C2=C([O-])c3ccccc3C(=O)/C2=N\S(=O)(=O)c2ccc(Br)cc2)c1 22.4 µM [inhibitor, partial curve], CCCCCCCCNCCS(=O)(=O)NCc1ccccc1OC 3.55 µM [inhibitor, full curve], O=C(NN1C(=O)/C(=C/c2ccc(O)c([N+](=O)[O-])c2)SC1=S)c1ccccc1Cl 50.1 µM [inhibitor, partial curve, poor fit]
